37 compounds from PubChem BioAssay AID1487 (National Center for Advancing Translational Sciences (NCATS), 2009) can be followed below.

The experiment can be described thus: qHTS Assay for Modulators of Lamin A Splicing. The conditions noted are these: HeLa LMNA splicing GFP/RFP minigene ratio, 48 h. The gist of the method: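 S3 HeLa stable clones carrying a lamin A-EGFP splicing minigene plus DsRed2 were seeded at 600 cells/well in Opti-MEM with 2% FBS, pin-dosed and incubated 48 h at 37°C. Acumen cytometry (488 nm) gave the GFP/RFP total-intensity ratio.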

Setting [1] is: measured here: GFP splicing reporter channel.
The mark [2] stands for this setting: measured here: RFP viability control channel.

Some of the results follow. Further columns of the screen follow, without active or inactive calls. Compounds called inactive in the main read-out are mostly missing here. The note in brackets gives the kind of curve behind each potency; many fits are weak.

With `N/C(=N\OC(=O)c1ccccc1Cl)c1ccncc1`, the AC50 under setting [1] was 2.51 µM [falling, single point] and the AC50 under setting [2] is 35.5 µM [rising, single point].
Turning to `CCOC(=O)C(=CNc1ccc(N2CCOCC2)cc1)C(=O)OCC`, the AC50 under setting [1] is 5.62 µM [falling, single point].
In the case of `O=C(/C=C/c1cccs1)Nc1nc(-c2ccccc2)cs1`, the AC50 under setting [2] was 28.2 µM [rising, single point].
On the same count and under the same terms, the figure for `O=[N+]([O-])c1ccc(CSc2nc3ccccc3[nH]2)cc1` is 14.1 µM [rising, partial curve, poor fit]; for `CCN(C(=O)CSc1nc2ccccc2c(=O)n1CCOC)C1CCS(=O)(=O)C1` (stereo not drawn) it is 3.16 µM [rising, partial curve]; for `CCOC(=O)C1CCCN(Cc2nc(Cc3cccc(F)c3)no2)C1` (stereo not drawn) it is 6.31 µM [falling, partial curve, poor fit].
The same measure, in the same setting: under `COC(=O)c1c(NC(=O)CSc2nncs2)sc2c1CCCCC2` stands 14.1 µM [rising, partial curve].
`COc1ccc(N2CCN(C(=O)CSc3nnc(NC(=O)C4CC4)s3)CC2)cc1`: the half-maximal activity concentration (AC50) under setting [1] is 0.00316 µM [falling, full curve, poor fit].
Same read-out and setting: the figure for `Cc1ccccc1Nc1nc(N)c2ccccc2n1` is 0.02 µM [falling, full curve, poor fit].
As for `COc1ccc(-c2ccc(CNCCCN3CCOCC3)o2)cc1Cl`, the concentration at half-maximal activity (AC50) is, setting by setting: under setting [1], 3.98 µM [falling, full curve, poor fit]; under setting [2], 3.16 µM [falling, single point].
Turning to `O=C(CSc1nnnn1-c1ccccc1)CC(=O)Nc1ccc(Cl)cc1`, the AC50 is 11.2 µM [rising, partial curve] under setting [1] and 11.2 µM [rising, partial curve] under setting [2].
Regarding `C(=N\Nc1nc(Nc2ccccc2)nc(N2CCOCC2)n1)/c1c[nH]c2ccccc12`, the AC50 runs as follows: under setting [1], 17.8 µM [falling, single point]; under setting [2], 35.5 µM [falling, single point].
As to `Cc1ccc(C)c(OCCn2c(=O)c3c(ncn3C3CCCC3)n(Cc3ccccc3)c2=O)c1`, the AC50 under setting [2] is 14.1 µM [rising, single point].
On the same count and under the same terms, the figure for `O=C(c1ccc([N+](=O)[O-])cc1)n1nc(-c2ccccc2)nc1NCc1ccccc1` is 20 µM [falling, partial curve, poor fit]; for `CC1(C)CC(NCc2ccncc2)CC(C)(C)N1` it is 2 µM [rising, single point].
Consider `COc1ccccc1NS(=O)(=O)c1cccc(C(=O)N/N=C/c2cn(-c3ccccc3)nc2-c2ccccc2)c1`, for which the AC50 by setting is: under setting [1], 28.2 µM [rising, single point]; under setting [2], 22.4 µM [rising, single point].
`CCCCCCC(=O)N/N=C/c1ccc(Br)cc1`: the AC50 under setting [2] is 0.0141 µM [rising, full curve, poor fit].
As to `COc1ccc(S(=O)(=O)N2CCC(O)(c3ccc(Cl)cc3)CC2)cc1`, the AC50 was 0.00501 µM [rising, full curve, poor fit] under setting [1] and 22.4 µM [rising, partial curve] under setting [2].
For `CCCCOc1ccc(-c2ncc(C(=O)OCC)c(N)n2)cc1`, the AC50 under setting [2] was 31.6 µM [rising, single point].
Regarding `COc1cccc(N2CCN(c3cnc4ccccc4n3)CC2)c1`, the AC50 under setting [1] was 6.31 µM [falling, partial curve].
On to `COc1cccc(/C=C(\CC(=O)O)c2nc3ccccc3s2)c1`, for which, under setting [2], the AC50 is 7.94 µM [falling, partial curve, poor fit].
On to `CCOc1ccc(C(c2c(NC(=O)c3ccccc3)sc(C)c2C)N2CCN(C)CC2)cc1` (stereo not drawn), for which the AC50 under setting [1] was 35.5 µM [falling, single point].
Consider `CCC(=NCCc1c(C)[nH]c2ccc(C)cc12)C1=C(O)CC(c2ccccc2)CC1=O` (stereo not drawn), for which, under setting [2], the half-maximal activity concentration (AC50) is 0.447 µM [rising, full curve].
Still for that read-out and setting: the figure for `CC/C(Cc1ccccc1)=N\NC(=O)c1cc([N+](=O)[O-])cc([N+](=O)[O-])c1` is 2.51 µM [falling, partial curve].
For the compound `Cc1cc2ccccc2n1CCNC(=O)COc1ccc2ccccc2c1`, the concentration at half-maximal activity (AC50) by setting is: under setting [1], 31.6 µM [rising, single point]; under setting [2], 35.5 µM [rising, single point].
As for `CC1=CC(C)(C)Nc2cc(C)c(C)cc21`, the half-maximal activity concentration (AC50) under setting [2] is 0.316 µM [falling, full curve, poor fit].
With `C/C(=N\Nc1nc(N)cc(Cl)n1)c1ccc(F)cc1`, the AC50 reads like this: under setting [1], 0.891 µM [falling, full curve, poor fit]; under setting [2], 2.51 µM [falling, full curve, poor fit].
For the compound `FC(F)(F)c1cnc(Oc2ccc(-c3nnco3)cc2)c(Cl)c1`, the AC50 under setting [2] was 5.62 µM [rising, single point].
The same measure, in the same setting: under `COc1ccccc1NC(=S)N/N=C1\CC(C)(C)Oc2ccc(O)cc21` stands 1.41 µM [falling, full curve, poor fit].
Regarding `S=c1[nH]nc(CCSCc2ccccc2)n1-c1ccccc1`, the AC50 is 6.31 µM [rising, partial curve, poor fit] under setting [1] and 0.316 µM [rising, full curve] under setting [2].
With `CCOC(=O)c1c(CSc2ccccc2)n(C)c2ccc(O)c(CN3CCOCC3)c12`, the AC50 under setting [1] was 10 µM [falling, partial curve].
In the case of `COc1ccc([N+](=O)[O-])cc1N(CC(=O)NCCSc1ccc(C)cc1)S(C)(=O)=O`, under setting [2], the AC50 is 35.5 µM [falling, single point].
Consider `Nc1ccc(C(=O)OCc2nc3cc4ccccc4cc3[nH]2)cc1`, for which the concentration at half-maximal activity (AC50) runs as follows: under setting [1], 10 µM [falling, partial curve]; under setting [2], 11.2 µM [rising, partial curve].
For the compound `CCc1ccc(OCCCC(=O)NCc2ccccc2)cc1`, the half-maximal activity concentration (AC50) by setting is: under setting [1], 35.5 µM [rising, single point]; under setting [2], 20 µM [rising, single point].
As for `O=C(CSC1=NCCS1)Nc1nc2ccccc2s1`, the AC50 under setting [2] is 12.6 µM [rising, partial curve].
On the same count and under the same terms, under `O=C(O)C1CCCCC1C(=O)Nc1ccc(-c2ccccc2)cc1` (stereo not drawn) stands 1 µM [falling, full curve].
On to `C[N+]1(CC(=O)OCCCC2CCCCC2)CCCC1`, for which the AC50 under setting [1] was 0.01 µM [rising, full curve, poor fit].
